± gives the standard deviation of the averaged measurements. The list shows a part of the results, in another mix than the full data.
Compound: Nc1ncnc2c1ncn2[C@@H]1O[C@H](COP(=O)(O)OP(=O)(O)NP(=O)(O)O)[C@@H](O)[C@H]1O [adenylyl imidodiphosphate]
Test: NP40-soluble protein abundance relative to vehicle (solubility fold change) (ratio); higher = more soluble protein in presence of AMP-PNP
Summary of the method: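 Crude Jurkat lysate, prepared by Dounce homogenisation, was exposed to eight concentrations from 0.1 to 10 mM for 10 min at room temperature and then 3 min at 37 °C. Solubilisation used 0.8% NP40 with benzonase for 60 min at 4 °C, followed by ultracentrifugation and TMT labelling of the supernatant for LC-MS/MS. After vsn normalisation of intensities, each value is the fold change against the detergent-processed vehicle within each replicate, across three independent experiments.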

Protein sequences, listed by entry. Tags and fused reporters are not part of them. Lines headed by an entry give the natural chain unless they say otherwise; changes in a name come on top.
UniProt P15151: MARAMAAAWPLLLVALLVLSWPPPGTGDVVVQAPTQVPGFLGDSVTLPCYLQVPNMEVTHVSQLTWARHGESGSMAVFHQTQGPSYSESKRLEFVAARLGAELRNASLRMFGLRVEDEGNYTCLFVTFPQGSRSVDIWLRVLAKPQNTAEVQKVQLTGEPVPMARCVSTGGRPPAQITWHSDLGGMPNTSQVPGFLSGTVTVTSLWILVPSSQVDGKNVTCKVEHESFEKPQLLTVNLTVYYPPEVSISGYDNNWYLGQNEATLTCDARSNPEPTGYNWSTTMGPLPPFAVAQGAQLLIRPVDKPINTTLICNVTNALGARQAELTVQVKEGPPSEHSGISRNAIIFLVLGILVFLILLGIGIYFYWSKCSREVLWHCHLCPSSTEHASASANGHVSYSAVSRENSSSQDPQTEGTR
UniProt O43681: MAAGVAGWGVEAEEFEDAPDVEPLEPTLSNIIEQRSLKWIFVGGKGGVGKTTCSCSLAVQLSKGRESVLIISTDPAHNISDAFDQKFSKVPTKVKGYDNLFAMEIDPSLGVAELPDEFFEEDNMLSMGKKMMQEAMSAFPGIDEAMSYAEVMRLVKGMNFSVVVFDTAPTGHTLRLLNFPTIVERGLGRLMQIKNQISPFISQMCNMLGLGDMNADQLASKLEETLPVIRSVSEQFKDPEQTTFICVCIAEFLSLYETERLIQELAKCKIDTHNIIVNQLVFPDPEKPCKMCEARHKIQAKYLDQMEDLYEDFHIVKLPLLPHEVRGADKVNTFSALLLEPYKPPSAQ
UniProt Q96EK7: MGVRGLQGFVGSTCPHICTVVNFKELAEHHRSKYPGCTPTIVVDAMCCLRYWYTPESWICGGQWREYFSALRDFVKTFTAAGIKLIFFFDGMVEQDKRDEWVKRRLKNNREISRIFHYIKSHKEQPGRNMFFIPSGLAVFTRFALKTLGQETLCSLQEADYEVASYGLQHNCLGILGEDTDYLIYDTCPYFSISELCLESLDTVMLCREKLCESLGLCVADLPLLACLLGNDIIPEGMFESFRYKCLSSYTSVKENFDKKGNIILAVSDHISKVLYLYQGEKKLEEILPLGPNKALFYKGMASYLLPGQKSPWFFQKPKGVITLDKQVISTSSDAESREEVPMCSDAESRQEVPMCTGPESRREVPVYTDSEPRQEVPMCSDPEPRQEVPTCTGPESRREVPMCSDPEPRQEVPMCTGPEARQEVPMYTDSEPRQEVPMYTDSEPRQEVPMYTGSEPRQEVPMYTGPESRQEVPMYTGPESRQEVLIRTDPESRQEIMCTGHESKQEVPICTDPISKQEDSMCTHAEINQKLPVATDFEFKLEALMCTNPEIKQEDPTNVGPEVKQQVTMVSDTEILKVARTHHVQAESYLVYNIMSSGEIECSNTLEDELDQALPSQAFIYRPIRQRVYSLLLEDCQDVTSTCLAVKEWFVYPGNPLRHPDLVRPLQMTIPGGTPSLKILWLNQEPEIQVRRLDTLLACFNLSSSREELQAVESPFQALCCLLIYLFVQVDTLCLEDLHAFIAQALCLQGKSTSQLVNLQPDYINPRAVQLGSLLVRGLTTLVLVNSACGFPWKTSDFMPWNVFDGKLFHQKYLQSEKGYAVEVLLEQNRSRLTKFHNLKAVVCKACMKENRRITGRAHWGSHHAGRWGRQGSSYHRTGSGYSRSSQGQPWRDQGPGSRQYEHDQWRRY
UniProt Q9HAU0: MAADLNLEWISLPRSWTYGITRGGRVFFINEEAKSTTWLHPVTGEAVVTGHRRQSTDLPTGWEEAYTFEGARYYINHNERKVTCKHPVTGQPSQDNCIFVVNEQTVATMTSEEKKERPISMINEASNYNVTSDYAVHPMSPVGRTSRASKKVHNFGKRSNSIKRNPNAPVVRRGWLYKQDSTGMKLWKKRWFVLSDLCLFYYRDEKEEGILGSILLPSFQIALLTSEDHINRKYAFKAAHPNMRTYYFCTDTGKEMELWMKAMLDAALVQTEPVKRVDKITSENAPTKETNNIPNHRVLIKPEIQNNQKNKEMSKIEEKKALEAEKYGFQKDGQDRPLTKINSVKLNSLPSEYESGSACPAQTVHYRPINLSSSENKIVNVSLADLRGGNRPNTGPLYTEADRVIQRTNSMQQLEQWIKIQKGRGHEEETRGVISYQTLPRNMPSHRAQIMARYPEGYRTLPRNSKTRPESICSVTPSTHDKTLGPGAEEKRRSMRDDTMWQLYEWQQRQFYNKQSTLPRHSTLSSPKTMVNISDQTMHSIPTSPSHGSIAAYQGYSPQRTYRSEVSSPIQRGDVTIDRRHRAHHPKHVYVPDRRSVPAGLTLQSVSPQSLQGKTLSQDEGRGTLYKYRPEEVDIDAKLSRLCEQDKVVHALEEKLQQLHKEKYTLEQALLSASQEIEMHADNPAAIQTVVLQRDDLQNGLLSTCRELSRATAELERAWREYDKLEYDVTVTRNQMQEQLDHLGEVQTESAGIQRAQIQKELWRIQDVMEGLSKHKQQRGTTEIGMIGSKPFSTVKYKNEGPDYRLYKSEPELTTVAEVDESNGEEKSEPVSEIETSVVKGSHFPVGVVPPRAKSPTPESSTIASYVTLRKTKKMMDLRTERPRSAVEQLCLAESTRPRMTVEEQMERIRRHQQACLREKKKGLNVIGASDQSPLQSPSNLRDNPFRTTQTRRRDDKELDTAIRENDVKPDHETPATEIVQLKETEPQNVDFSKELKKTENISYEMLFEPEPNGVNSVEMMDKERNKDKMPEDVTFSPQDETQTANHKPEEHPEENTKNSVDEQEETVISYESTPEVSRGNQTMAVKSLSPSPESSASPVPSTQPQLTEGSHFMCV
UniProt Q8IWT0: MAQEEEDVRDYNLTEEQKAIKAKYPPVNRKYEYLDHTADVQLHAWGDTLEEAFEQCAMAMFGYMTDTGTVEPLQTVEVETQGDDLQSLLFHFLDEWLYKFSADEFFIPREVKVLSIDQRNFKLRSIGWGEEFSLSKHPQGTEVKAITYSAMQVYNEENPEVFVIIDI
UniProt Q92800, whole entry: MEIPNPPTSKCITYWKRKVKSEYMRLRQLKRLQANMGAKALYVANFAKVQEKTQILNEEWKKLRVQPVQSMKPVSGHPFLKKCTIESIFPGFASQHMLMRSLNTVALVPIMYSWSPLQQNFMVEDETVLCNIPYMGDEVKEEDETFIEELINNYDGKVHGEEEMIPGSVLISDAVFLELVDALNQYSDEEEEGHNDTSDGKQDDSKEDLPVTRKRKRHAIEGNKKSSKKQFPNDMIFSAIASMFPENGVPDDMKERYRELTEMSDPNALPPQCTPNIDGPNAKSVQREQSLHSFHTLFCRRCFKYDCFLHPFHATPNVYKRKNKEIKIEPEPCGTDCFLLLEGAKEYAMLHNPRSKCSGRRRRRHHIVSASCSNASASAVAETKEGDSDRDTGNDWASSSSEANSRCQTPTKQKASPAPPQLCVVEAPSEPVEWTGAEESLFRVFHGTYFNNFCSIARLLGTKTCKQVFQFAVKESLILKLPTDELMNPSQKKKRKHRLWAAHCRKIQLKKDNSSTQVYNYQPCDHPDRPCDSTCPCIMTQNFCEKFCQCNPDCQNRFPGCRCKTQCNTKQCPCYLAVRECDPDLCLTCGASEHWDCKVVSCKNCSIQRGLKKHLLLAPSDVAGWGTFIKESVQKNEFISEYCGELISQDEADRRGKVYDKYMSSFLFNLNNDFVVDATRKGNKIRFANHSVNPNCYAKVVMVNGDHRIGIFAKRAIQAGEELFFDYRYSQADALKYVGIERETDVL
UniProt Q92544: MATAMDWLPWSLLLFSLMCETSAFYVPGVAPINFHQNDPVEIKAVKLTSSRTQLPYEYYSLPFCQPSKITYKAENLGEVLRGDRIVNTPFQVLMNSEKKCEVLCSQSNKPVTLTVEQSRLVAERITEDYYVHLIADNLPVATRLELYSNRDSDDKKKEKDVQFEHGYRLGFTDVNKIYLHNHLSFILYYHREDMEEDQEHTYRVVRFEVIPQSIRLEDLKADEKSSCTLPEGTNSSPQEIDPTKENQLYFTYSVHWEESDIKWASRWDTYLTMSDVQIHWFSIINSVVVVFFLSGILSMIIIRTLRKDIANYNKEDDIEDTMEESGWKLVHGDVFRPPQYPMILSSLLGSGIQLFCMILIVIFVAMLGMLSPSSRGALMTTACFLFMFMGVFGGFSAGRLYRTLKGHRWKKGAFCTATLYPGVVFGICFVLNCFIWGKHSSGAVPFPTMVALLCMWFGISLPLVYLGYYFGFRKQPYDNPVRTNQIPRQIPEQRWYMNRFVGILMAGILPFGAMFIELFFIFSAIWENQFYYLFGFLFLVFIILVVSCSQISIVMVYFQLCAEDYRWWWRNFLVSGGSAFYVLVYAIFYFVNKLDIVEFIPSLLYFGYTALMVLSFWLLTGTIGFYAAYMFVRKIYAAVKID
UniProt Q03701: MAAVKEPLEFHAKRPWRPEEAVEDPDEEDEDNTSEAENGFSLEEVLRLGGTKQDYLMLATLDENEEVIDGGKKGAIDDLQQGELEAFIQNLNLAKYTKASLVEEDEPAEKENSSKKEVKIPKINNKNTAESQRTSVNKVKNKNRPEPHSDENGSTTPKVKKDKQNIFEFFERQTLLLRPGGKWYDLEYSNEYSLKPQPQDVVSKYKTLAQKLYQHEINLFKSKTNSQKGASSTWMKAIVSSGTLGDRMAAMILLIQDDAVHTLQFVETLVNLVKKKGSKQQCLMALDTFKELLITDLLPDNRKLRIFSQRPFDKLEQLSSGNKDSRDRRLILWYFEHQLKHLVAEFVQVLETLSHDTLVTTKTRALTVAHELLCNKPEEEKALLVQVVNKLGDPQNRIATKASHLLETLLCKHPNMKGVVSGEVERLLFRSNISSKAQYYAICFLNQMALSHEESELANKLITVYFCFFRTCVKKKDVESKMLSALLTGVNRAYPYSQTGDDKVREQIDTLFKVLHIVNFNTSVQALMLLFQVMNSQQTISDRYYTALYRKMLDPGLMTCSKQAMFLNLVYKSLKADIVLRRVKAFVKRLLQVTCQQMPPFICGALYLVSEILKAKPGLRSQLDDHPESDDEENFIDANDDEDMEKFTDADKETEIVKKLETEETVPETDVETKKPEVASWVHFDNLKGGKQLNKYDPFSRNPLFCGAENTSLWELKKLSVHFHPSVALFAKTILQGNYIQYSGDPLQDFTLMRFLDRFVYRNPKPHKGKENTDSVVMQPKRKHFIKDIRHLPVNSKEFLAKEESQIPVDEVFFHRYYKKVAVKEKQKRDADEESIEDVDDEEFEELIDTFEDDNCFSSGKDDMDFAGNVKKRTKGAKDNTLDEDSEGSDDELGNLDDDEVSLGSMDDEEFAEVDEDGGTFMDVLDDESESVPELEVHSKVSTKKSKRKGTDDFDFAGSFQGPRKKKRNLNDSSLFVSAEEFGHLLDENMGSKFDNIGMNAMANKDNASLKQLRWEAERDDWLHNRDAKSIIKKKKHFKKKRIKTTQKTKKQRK
UniProt Q96B45: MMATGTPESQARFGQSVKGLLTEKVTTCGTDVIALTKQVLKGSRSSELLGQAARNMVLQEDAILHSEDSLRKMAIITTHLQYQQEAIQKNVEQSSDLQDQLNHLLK
UniProt Q8IW50: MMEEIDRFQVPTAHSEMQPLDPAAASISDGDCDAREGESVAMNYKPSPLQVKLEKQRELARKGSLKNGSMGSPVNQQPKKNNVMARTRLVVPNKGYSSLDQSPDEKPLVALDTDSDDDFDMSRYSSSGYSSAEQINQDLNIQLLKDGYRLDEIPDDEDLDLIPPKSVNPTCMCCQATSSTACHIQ
UniProt O00571: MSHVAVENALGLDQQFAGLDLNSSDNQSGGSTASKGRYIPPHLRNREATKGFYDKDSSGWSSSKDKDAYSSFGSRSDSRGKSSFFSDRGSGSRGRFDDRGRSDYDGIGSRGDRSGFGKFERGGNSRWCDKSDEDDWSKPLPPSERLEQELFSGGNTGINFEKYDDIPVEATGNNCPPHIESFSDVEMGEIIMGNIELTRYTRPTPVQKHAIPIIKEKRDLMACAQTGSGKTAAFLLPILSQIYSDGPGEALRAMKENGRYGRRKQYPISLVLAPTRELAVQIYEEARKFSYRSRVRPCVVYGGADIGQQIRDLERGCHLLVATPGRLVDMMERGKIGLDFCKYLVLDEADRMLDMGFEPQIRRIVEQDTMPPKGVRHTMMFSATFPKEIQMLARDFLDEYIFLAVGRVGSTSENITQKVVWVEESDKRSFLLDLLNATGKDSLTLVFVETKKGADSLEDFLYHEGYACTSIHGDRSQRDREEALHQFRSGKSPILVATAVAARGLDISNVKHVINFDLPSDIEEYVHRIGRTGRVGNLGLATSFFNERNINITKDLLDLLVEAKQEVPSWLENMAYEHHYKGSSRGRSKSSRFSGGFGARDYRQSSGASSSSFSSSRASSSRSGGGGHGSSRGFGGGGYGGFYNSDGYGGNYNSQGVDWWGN
UniProt O95139, whole entry: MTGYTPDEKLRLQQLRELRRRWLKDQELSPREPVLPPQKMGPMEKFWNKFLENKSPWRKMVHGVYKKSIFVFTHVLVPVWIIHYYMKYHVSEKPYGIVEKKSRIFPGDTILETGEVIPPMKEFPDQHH

Target	NP40-soluble protein abundance (concentration: 1mM)	NP40-soluble protein abundance (concentration: 2mM)	NP40-soluble protein abundance (concentration: 4mM)	NP40-soluble protein abundance (concentration: 6mM)	NP40-soluble protein abundance (concentration: 8mM)	NP40-soluble protein abundance (concentration: 10mM)
A0A0A0MRN1|Q5T8I9 (UniProt Q5T8I9)	1.03 ± 0.03	1.03 ± 0.015	1 ± 0.026	0.981 ± 0.045	0.983 ± 0.021	0.9888 ± 0.0068
A0A0A0MTD9|A0A0A0MTE6|A0A0B4J1S7|E9PMT0 and related entries (UniProt Q9Y2R2)	1.016 ± 0.0078	1.05 ± 0.064	1.01 ± 0.024	0.995 ± 0.017	0.973 ± 0.014	1.01 ± 0.017
A0A140T9B7|A0A140T9Z6|P01889 and related entries (UniProt P18463+P01889+P30486+P10321+P16188+Q30167+P30504+P30460+P30493+Q29865+Q6DU44+E9PIB1+Q8MH48+P30508+Q5SRN5+Q9TNN7+Q29940+O19617+Q29963+Q31610)	0.989 ± 0.025	1.01 ± 0.032	0.986 ± 0.011	1 ± 0.019	0.985 ± 0.011	1 ± 0.016
A0A087WXI0 (UniProt Q7Z6P3)	1.03 ± 0.059	1.05 ± 0.021	1.06 ± 0.041	1.02 ± 0.052	1.03 ± 0.037	1.04 ± 0.035
A0A0G2JIW1|P0DMV8 and related entries (UniProt P0DMV9+P0DMV8)	1.04 ± 0.021	1.04 ± 0.025	1.04 ± 0.036	1.05 ± 0.049	1.04 ± 0.052	1.05 ± 0.068
A0A087WY71|Q96CW1 and related entries (UniProt Q96CW1)	0.966 ± 0.076	0.881 ± 0.055	1.02 ± 0.11	1.12 ± 0.094	1.22 ± 0.041	1.13 ± 0.12
A0A0D9SG71|P49459 (UniProt P49459)	1.03 ± 0.03	1.02 ± 0.019	0.988 ± 0.018	1.01 ± 0.027	1.02 ± 0.021	1.01 ± 0.02
A0A087X1Z3|Q9UL46 (UniProt Q9UL46)	0.967 ± 0.097	1.09 ± 0.13	0.997 ± 0.11	1.01 ± 0.13	1.03 ± 0.063	0.962 ± 0.11
A0A0A0MSA9|A0A0C4DG49|P15151 and related entries (UniProt P15151)	1.01 ± 0.03	0.997 ± 0.017	0.992 ± 0.033	1.04 ± 0.015	1.046 ± 0.0088	1.03 ± 0.021
A0A087WXS7|O43681 (UniProt O43681)	0.946 ± 0.025	0.913 ± 0.025	0.953 ± 0.027	0.963 ± 0.034	0.961 ± 0.023	0.941 ± 0.045
A0A087WZ62	0.976 ± 0.026	0.963 ± 0.027	0.931 ± 0.022	0.952 ± 0.014	0.946 ± 0.028	0.936 ± 0.017
A0A0X1KG71|Q8WX92 (UniProt Q8WX92)	0.9679 ± 0.0021	0.982 ± 0.028	0.947 ± 0.043	0.997 ± 0.051	0.978 ± 0.02	0.982 ± 0.031
A0A0D9SEJ5|F5GY05 and related entries (UniProt Q96EK7)	0.974 ± 0.021	0.99 ± 0.046	0.993 ± 0.039	0.972 ± 0.052	0.953 ± 0.022	0.957 ± 0.037
A0JP02 and related entries (UniProt Q9HAU0)	0.998 ± 0.042	1.01 ± 0.033	1.03 ± 0.039	1.02 ± 0.059	1.03 ± 0.042	1.03 ± 0.011
A0A087X0V4|A8K0B5 and related entries (UniProt Q8IWT0)	0.987 ± 0.031	0.983 ± 0.043	0.942 ± 0.06	0.915 ± 0.047	0.927 ± 0.093	0.896 ± 0.027
A0A087X159|P81877 and related entries (UniProt P81877)	0.994 ± 0.025	0.978 ± 0.029	0.953 ± 0.021	0.976 ± 0.013	0.991 ± 0.017	0.9793 ± 0.003
A0A0C4DFX9|Q9H3P2 (UniProt Q9H3P2)	1.02 ± 0.017	1.03 ± 0.058	1.01 ± 0.028	1.005 ± 0.002	0.982 ± 0.015	0.98 ± 0.028
A0A0A0MSY9|Q92800 and related entries (UniProt Q92800)	0.978 ± 0.017	0.97 ± 0.022	0.9794 ± 0.0047	0.994 ± 0.016	0.999 ± 0.019	1.001 ± 0.0058
A0A0A0MTP3|Q99550 and related entries (UniProt Q99550)	0.963 ± 0.082	0.971 ± 0.032	0.965 ± 0.013	0.97 ± 0.082	0.963 ± 0.09	0.977 ± 0.079
A0A0G2JPT5|O75943 and related entries (UniProt O75943)	0.9727 ± 0.0014	1.0041 ± 0.00096	1.01 ± 0.013	0.97 ± 0.043	0.9982 ± 0.004	0.994 ± 0.039
A0A0C4DFM1|Q92544 (UniProt Q92544)	0.99 ± 0.025	0.9394 ± 0.0089	0.998 ± 0.04	0.972 ± 0.047	1.02 ± 0.028	0.941 ± 0.061
A0A087X1N2|Q03701 (UniProt Q03701)	1.02 ± 0.023	1.04 ± 0.05	1.03 ± 0.03	1.05 ± 0.04	1.06 ± 0.069	1.09 ± 0.12
A0A0C4DFM7|Q5TAX3 (UniProt Q5TAX3)	1.02 ± 0.034	1.06 ± 0.041	1.04 ± 0.085	0.97 ± 0.035	0.951 ± 0.063	0.967 ± 0.063
A0A0D9SFR6|Q86XP1 and related entries (UniProt Q86XP1)	1.03 ± 0.03	1.01 ± 0.054	1.03 ± 0.054	0.984 ± 0.032	0.965 ± 0.03	0.969 ± 0.033
A0A0B4J1R7|Q96B45 (UniProt Q96B45)	0.999 ± 0.017	1.04 ± 0.054	1.01 ± 0.03	0.991 ± 0.024	0.958 ± 0.038	0.982 ± 0.018
A0A0A0MRW1|Q5T593 and related entries (UniProt Q8IW50)	0.963 ± 0.057	0.981 ± 0.028	0.952 ± 0.048	0.964 ± 0.044	0.937 ± 0.021	0.923 ± 0.032
A0A0D9SF53|A0A0D9SFB3|A0A0D9SG12|O00571 (UniProt O00571)	1.04 ± 0.023	1.02 ± 0.039	1.04 ± 0.04	1.04 ± 0.07	1.1 ± 0.075	1.09 ± 0.092
A0A087WZX2|O95139 (UniProt O95139)	0.9832 ± 0.0059	1.07 ± 0.057	1.03 ± 0.025	0.998 ± 0.042	0.964 ± 0.037	0.98 ± 0.036
A0A0D9SFB1|A0A0D9SFE4|A0A0U1RQP1|Q05193 and related entries (UniProt Q05193)	0.972 ± 0.025	0.921 ± 0.0025	0.975 ± 0.055	0.974 ± 0.067	1 ± 0.031	0.991 ± 0.072

Full records as entered above.
A0A0A0MSY9|Q92800 and related entries (UniProt Q92800) is listed as NP40-soluble protein abundance (concentration: 1mM): 0.978 ± 0.017; NP40-soluble protein abundance (concentration: 2mM): 0.97 ± 0.022; NP40-soluble protein abundance (concentration: 4mM): 0.9794 ± 0.0047; NP40-soluble protein abundance (concentration: 6mM): 0.994 ± 0.016; NP40-soluble protein abundance (concentration: 8mM): 0.999 ± 0.019; NP40-soluble protein abundance (concentration: 10mM): 1.001 ± 0.0058
A0A0B4J1R7|Q96B45 (UniProt Q96B45) is listed as NP40-soluble protein abundance (concentration: 1mM): 0.999 ± 0.017; NP40-soluble protein abundance (concentration: 2mM): 1.04 ± 0.054; NP40-soluble protein abundance (concentration: 4mM): 1.01 ± 0.03; NP40-soluble protein abundance (concentration: 6mM): 0.991 ± 0.024; NP40-soluble protein abundance (concentration: 8mM): 0.958 ± 0.038; NP40-soluble protein abundance (concentration: 10mM): 0.982 ± 0.018
